[ ]: non-standard residue; d: D form. pS = N[C@@H](COP(=O)(O)O)C(=O)O; Thr(ol) = C[C@@H](O)[C@H](N)CO
Assay: Yield of preparation of ligand coated iron oxide nanoparticles after ligand exchange and G25 purification
Assay type: physicochemical
Details: single ligand shell, prepared using PBS and Tween 20, after G25 purification

| Compound | Yield (%) |
| --- | --- |
| PO3H2-O-CH2-CO-Ser(PO3H2)-NH-PEG4-OH [Peptide S7] | 63 |
| H-[pS]VVV[Thr(ol)] [Peptide S13] | 17 |

Same assay, conditions: single ligand shell, prepared using water only, after G25 size-exclusion purification

| Compound | Yield (%) |
| --- | --- |
| O=P(O)(O)SCCCCCCCCCCCCCCCCO [Ligand L3, (HO)2-PO-S-(CH2)16-OH] | 0 |
| NC(COP(=O)(O)O)C(=O)NCCOCCOCCOCCO (centres unmarked) [Peptide S1, H-Ser(PO3H2)-NH-PEG4-ol] | 2 |
| PO3H2-O-CH2-CO-NH-PEG-ol [Peptide S3] | 0 |
| O=P(O)(O)SCCCCCCCCCCCOCCOCCOCCOCCOCCOCCO [Ligand L2, (HO)2-PO-S-C11-EG6-OH] | 44 |
| H-Ser(PO3H2)-Ser-Ser-Ser-Ser-ol [Peptide S9] | 8 |
| PO3H2-O-CH2-CO-Ser(PO3H2)-NH-PEG4-OH [Peptide S7] | 80 |
| H-[pS]FFF[Thr(ol)] [Peptide S11] | 0 |
| H-[pS]VVV[Thr(ol)] [Peptide S13] | 80 |
| PO3H2-O-CH2-CO-Gly-NH-PEG4-OH [Peptide S5] | 49 |
| O=P(O)(O)SCCCCCCCCCCCOCCOCCOCCO [Ligand L1, (HO)2-PO-S-C11-EG3-OH] | 32 |
| PO3H2-O-CH2-CO-Ser(PO3H2)-NH-PEG4-ol [Peptide S8] | 91 |
| O=C(CNC(=O)COP(=O)(O)O)NCCOCCOCCOCCO [Peptide S6, PO3H2-O-CH2-CO-Gly-NH-PEG4-ol] | 0 |
